Results as given in the supplement of paper PMC11006884.
This is a selection; strong and weak results do not stand in their true shares.

Amino acid sequences for entries named in this document (tags omitted). A change or cut given only in a name is not applied to a line headed by its entry.
UniProt Q9P2J5: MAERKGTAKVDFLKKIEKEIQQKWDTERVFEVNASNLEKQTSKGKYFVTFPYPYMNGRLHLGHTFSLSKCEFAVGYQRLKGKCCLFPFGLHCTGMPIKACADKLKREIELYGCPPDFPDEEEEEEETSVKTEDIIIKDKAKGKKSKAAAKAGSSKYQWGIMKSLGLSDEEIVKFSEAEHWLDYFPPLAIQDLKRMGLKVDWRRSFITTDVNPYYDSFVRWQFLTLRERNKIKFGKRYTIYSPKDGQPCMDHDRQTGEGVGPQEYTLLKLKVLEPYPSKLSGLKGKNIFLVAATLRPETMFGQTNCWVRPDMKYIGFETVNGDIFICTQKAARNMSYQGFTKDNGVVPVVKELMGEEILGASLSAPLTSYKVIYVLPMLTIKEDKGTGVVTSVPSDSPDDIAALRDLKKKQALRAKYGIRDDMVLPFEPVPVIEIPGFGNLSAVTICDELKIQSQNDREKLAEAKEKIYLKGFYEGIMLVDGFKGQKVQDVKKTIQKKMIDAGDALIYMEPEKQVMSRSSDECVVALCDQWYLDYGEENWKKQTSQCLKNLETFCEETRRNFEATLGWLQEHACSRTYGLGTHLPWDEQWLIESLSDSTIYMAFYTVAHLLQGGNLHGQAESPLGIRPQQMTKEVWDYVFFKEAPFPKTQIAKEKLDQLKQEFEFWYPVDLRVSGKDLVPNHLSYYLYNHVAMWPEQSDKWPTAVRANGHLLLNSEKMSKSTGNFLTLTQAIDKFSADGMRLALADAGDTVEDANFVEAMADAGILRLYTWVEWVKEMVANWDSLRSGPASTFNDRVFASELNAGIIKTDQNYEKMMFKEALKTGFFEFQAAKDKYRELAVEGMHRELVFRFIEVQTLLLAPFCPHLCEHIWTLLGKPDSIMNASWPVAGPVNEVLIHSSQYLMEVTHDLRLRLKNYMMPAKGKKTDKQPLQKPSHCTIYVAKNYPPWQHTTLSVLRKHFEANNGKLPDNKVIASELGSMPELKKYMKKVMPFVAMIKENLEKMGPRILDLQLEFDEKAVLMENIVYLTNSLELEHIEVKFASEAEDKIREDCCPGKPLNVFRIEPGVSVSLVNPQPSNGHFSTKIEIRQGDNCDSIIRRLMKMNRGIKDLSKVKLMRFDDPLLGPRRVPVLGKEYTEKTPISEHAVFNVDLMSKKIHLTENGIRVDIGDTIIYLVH
UniProt Q9NVU0: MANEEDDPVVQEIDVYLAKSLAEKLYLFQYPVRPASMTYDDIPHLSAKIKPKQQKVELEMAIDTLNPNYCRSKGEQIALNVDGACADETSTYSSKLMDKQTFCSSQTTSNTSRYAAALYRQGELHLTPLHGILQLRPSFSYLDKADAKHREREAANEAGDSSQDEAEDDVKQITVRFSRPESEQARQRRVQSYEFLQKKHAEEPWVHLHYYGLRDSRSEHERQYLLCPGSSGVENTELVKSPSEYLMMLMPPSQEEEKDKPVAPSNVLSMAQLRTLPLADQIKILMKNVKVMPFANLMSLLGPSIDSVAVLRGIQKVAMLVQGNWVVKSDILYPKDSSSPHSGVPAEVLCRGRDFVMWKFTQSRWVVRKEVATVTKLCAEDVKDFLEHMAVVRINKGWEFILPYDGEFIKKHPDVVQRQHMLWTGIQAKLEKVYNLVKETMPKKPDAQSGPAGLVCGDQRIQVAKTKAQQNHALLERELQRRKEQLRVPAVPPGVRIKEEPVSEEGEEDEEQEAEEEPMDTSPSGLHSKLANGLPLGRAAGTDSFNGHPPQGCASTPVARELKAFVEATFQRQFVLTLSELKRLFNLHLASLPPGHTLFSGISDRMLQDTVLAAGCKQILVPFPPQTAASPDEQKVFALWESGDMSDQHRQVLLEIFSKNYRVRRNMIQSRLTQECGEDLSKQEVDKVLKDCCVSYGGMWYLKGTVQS
UniProt Q9NXW9: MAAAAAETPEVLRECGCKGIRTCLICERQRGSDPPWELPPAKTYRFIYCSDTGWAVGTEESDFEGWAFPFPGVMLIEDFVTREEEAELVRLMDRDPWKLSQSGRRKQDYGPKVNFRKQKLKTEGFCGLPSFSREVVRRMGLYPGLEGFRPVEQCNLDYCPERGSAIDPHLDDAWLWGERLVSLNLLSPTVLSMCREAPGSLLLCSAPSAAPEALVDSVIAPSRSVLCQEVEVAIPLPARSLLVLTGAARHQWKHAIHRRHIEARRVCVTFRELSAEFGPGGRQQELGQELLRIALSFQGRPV
UniProt Q9NUQ8: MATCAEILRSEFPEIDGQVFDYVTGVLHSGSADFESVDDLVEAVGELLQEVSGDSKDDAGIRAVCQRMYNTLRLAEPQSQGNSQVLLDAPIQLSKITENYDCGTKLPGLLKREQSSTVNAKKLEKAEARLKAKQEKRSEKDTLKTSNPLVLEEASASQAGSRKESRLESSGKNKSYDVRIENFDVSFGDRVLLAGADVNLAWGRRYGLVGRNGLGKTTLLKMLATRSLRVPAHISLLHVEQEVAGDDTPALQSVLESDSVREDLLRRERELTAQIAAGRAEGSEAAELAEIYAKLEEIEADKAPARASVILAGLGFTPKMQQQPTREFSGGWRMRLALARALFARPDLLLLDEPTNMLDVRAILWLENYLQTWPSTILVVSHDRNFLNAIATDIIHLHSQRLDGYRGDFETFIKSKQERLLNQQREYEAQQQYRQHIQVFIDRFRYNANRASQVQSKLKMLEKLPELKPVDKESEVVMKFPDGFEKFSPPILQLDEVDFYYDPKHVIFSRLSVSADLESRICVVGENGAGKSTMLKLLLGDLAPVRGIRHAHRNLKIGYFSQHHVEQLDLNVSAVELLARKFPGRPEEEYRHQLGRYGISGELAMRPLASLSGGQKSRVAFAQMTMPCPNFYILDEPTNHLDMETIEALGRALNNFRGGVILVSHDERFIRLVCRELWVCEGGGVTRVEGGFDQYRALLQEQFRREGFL
UniProt Q9UGP4: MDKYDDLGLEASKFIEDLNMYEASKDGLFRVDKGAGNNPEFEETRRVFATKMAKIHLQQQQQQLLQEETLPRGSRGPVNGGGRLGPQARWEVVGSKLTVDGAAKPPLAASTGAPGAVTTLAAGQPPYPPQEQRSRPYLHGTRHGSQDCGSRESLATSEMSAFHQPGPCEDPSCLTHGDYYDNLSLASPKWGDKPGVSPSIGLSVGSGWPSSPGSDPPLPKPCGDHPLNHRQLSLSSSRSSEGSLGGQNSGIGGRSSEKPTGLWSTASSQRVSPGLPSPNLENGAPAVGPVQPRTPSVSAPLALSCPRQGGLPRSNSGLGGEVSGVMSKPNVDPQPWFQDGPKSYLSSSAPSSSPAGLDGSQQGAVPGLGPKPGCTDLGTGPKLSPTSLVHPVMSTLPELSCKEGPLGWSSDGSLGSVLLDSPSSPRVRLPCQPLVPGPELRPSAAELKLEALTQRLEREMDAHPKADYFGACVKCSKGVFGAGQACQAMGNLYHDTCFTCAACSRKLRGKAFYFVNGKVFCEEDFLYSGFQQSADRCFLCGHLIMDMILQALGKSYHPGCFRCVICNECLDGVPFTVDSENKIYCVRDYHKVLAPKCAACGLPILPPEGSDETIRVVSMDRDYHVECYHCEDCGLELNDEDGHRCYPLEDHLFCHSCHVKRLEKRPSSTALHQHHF
UniProt Q9NVP2, whole entry, looked up: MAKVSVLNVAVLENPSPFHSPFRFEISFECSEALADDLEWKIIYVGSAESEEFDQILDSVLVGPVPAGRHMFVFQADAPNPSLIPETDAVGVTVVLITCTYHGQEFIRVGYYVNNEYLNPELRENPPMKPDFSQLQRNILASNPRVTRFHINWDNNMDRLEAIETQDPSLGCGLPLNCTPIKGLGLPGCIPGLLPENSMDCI
UniProt Q9UG63: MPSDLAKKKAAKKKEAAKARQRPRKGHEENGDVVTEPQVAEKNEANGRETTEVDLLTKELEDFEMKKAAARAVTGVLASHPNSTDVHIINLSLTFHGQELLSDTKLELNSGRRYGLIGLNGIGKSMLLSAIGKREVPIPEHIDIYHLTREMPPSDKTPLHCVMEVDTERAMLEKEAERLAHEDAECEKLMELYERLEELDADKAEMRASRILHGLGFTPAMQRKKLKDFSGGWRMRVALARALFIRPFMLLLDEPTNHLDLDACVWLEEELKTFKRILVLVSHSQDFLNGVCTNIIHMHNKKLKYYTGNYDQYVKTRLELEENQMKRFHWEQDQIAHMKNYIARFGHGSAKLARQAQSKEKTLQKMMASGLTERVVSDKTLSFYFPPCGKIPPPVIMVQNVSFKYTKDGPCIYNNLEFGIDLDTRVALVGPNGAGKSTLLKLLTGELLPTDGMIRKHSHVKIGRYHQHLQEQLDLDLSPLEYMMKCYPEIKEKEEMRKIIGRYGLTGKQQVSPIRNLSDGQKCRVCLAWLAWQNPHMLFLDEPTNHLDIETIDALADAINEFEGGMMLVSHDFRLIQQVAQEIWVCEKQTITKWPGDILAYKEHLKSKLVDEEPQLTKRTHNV
UniProt Q9P0U4, whole entry: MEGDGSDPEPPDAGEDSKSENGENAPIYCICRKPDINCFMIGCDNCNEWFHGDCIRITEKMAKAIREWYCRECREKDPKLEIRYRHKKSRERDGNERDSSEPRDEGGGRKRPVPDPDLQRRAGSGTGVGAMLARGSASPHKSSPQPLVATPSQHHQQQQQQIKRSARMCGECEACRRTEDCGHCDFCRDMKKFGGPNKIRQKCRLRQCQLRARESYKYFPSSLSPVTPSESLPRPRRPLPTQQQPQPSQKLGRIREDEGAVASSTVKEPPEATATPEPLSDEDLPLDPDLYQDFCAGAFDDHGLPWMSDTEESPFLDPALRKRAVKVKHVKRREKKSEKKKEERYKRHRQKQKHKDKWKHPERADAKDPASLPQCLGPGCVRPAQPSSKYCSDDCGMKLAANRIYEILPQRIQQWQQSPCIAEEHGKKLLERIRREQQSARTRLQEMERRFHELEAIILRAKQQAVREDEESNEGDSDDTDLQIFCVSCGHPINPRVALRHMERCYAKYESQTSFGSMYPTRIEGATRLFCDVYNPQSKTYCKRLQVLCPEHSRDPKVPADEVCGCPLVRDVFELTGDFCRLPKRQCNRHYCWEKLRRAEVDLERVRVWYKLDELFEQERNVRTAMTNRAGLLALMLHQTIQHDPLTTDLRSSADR
UniProt Q9UBT2: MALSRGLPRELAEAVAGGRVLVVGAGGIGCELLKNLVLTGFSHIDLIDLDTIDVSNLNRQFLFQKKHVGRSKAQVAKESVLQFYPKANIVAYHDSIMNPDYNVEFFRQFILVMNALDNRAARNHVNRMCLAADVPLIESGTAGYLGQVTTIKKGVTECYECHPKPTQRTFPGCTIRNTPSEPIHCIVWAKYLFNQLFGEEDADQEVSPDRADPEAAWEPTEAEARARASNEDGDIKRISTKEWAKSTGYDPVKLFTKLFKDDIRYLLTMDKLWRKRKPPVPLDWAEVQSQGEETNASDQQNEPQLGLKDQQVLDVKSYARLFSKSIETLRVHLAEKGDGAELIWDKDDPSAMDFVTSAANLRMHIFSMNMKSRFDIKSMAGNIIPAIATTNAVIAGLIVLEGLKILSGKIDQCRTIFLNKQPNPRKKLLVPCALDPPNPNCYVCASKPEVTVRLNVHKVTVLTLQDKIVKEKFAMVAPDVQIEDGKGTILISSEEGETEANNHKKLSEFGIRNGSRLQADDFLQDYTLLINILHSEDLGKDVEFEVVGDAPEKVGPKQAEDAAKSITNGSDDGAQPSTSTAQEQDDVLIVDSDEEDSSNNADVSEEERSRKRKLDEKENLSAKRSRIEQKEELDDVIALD
UniProt Q9NVH1: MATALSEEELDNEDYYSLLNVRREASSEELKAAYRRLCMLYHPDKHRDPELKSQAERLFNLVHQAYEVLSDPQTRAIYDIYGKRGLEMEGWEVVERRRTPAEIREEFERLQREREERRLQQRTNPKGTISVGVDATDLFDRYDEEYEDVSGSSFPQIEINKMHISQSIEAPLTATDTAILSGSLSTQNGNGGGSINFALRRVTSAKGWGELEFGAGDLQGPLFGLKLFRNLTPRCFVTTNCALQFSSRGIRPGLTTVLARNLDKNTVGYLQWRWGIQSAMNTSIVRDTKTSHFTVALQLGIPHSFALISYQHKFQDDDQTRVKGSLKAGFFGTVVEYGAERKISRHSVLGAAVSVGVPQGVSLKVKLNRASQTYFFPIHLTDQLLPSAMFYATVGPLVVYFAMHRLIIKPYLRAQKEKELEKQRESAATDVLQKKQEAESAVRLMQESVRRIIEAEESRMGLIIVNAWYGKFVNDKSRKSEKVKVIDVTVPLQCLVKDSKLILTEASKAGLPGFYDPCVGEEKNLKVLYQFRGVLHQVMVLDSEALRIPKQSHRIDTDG
UniProt Q9NWY4: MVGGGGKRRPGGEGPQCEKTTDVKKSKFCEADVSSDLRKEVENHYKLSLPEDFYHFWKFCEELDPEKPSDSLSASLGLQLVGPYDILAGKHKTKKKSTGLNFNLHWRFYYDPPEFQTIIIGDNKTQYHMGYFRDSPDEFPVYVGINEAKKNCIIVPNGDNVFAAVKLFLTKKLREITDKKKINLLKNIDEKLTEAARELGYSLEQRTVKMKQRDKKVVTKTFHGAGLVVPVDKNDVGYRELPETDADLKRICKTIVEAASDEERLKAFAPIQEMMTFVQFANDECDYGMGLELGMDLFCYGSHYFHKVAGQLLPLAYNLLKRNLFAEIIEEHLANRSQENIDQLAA

Compound: COC(=O)C#Cc1ccccc1 [methyl 3-phenylpropiolate]
Experiment: log2 ratio of iodoacetamide-alkyne labeling of the cysteine site, DMSO over compound (competition); higher = stronger covalent engagement of the cysteine by the compound, active = 1 or more
Conditions: 500 µM; treatment time 1 h; system: HEK293T cell lysate
Procedure, shortened: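 After 1 h at ambient temperature with vehicle or electrophile (500 µM), HEK293T lysate (2 mg/mL) was labelled for 1 h with iodoacetamide alkyne and clicked to sCIP-TMT reagents. Pooled samples were trypsin-digested overnight at 37 °C, streptavidin-enriched, acid-eluted and analysed by Orbitrap Eclipse LC-MS/MS with FAIMS, then quantified in FragPipe over three replicates with duplicate channels. A cysteine's log2 competition ratio is its mean control-channel over mean compound-channel reporter intensity. Cysteines quantified in only one replicate were not included.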

| Target | log2 ratio of iodoacetamide-alkyne labeling |
| --- | --- |
| LARS C100 (UniProt Q9P2J5) | inactive: 0.34 |
| ANKFY1 C1159 (UniProt Q9P2R3) | inactive: 0.475 |
| POLR3E C70 (UniProt Q9NVU0) | inactive: 0.596 |
| ALKBH4 C204 (UniProt Q9NXW9) | inactive: 0.207 |
| ALKBH4 C126 (UniProt Q9NXW9) | inactive: 0.103 |
| DDX18 C472 (UniProt Q9NVP1) | inactive: 0.325 |
| NCDN C4 (UniProt Q9UBB6) | active: 1.66 |
| GMIP C895 (UniProt Q9P107) | inactive: 0.389 |
| ABCF3 C102 (UniProt Q9NUQ8) | inactive: 0.445 |
| UniProt Q9NVA2_C41 | inactive: -0.218 |
| RCC2 C428 (UniProt Q9P258) | inactive: 0.696 |
| MRPL39 C133 (UniProt Q9NYK5) | inactive: 0.813 |
| UniProt Q9NVR5_C673 | inactive: 0.698 |
| LIMD1 C305 (UniProt Q9UGP4) | active: 1.43 |
| STK39 C525 (UniProt Q9UEW8) | inactive: 0.296 |
| MTPAP C242 (UniProt Q9NVV4) | inactive: 0.146 |
| FTSJ1 C238 (UniProt Q9UET6) | inactive: -0.0249 |
| ASF1B C178 (UniProt Q9NVP2) | active: 1.22 |
| MTPAP C412 (UniProt Q9NVV4) | inactive: 0.508 |

Reprinted at random: 3 records from the list.

| Target | log2 ratio of iodoacetamide-alkyne labeling |
| --- | --- |
| MRPL39 C133 (UniProt Q9NYK5) | inactive: 0.813 |
| UniProt Q9NVA2_C41 | inactive: -0.218 |
| ASF1B C178 (UniProt Q9NVP2) | active: 1.22 |

Next part:

| Target | log2 ratio of iodoacetamide-alkyne labeling |
| --- | --- |
| ABCF2 C411 (UniProt Q9UG63) | inactive: 0.306 |
| RIC8B C373 (UniProt Q9NVN3) | inactive: 0.285 |
| CXXC1 C531 (UniProt Q9P0U4) | inactive: 0.253 |
| ADPRHL2 C132 (UniProt Q9NX46) | inactive: -0.0495 |
| ATXN10 C405 (UniProt Q9UBB4) | inactive: 0.25 |
| MPP6 C103 (UniProt Q9NZW5) | inactive: 0.0103 |
| UniProt Q9UBD5_C159 | active: 1.13 |
| ASF1B C172 (UniProt Q9NVP2) | active: 1.22 |
| CHMP5 C20 (UniProt Q9NZZ3) | inactive: 0.401 |
| COPG2 C420 (UniProt Q9UBF2) | inactive: -0.0241 |
| UniProt Q9NWV8_C222 | inactive: 0.395 |
| NCDN C3 (UniProt Q9UBB6) | active: 1.66 |
| UBA2 C30 (UniProt Q9UBT2) | inactive: 0.198 |
| LRWD1 C88 (UniProt Q9UFC0) | inactive: 0.122 |
| TBC1D13 C145 (UniProt Q9NVG8) | inactive: 0.0279 |
| DNAJC11 C235 (UniProt Q9NVH1) | inactive: 0.103 |
| UniProt Q9NWY4_C17 | inactive: 0.873 |
| ASF1B C189 (UniProt Q9NVP2) | inactive: 0.0773 |
| LARS C573 (UniProt Q9P2J5) | inactive: 0.342 |
